From PubChem BioAssay AID485314 (National Center for Advancing Translational Sciences (NCATS), 2010)
Out of some 340,000 compounds screened, about 4,500 (1.3%) were called active. This list was built around the results that the source calls inconclusive (neither active nor inactive); the mix of calls is not that of the screen. The call rests on the fitted dose curve; in most records, active means well fitted inhibition curve with a large enough effect; inconclusive means small, poorly fitted or top-dose-only effect, or another doubt; inactive means no such curve, though single readings can be large or run the other way. A potency beside an inconclusive call is a rough fit, not a confirmed value.

The compounds below were run against DNA polymerase beta (Homo sapiens) (UniProt P06746) (assay: qHTS Assay for Inhibitors of DNA Polymerase Beta). Conditions: Pol beta primer extension/strand displacement, fluorescence kinetic; activity change, negative = inhibition: at 114 µM (top of the series).
Summary of the method: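 Human Pol beta at 10 nM; strand-displacement substrate 50 nM final. Compound exposure 15 min at room temperature before start, reaction 10 min at room temperature.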
On the % scale 0 is the no-effect control and ±100 the full control effect; potency means the concentration at half of the fitted maximal effect.

Potency, inactive:
COc1ccc2cc(CNc3ccccc3)c(=O)n(CC(=O)Nc3ccc(C)cc3C)c2c1
COc1ccc(CC(=O)N2CCCc3ccccc32)cc1OC
COc1ccc2c(c1)oc(=O)c1ccccc12
CCc1ccc(N(CC)C(=O)Cn2c(=O)oc3ccccc32)cc1
O=C(NCc1ccccc1Cl)c1cnc2sc(N3CCCCC3)nn2c1=O
CCn1c(=O)n(CC)c2cc(N3CCCCC3)c(NC(=O)Nc3ccccc3C(F)(F)F)cc21
CC(C)c1cnc2c(c1SCC(=O)NCc1ccccc1)c(=O)n(C)c(=O)n2C
O=C(CSc1ncccn1)NCc1ccc(F)cc1
CCn1c(=O)cc(SCC(=O)N2CCN(c3cc(C)ccc3C)CC2)c2ccccc21
CCCCN(CC)C(=O)Cn1nc(C)c2c(C)n(-c3ccccc3)nc2c1=O
COc1ccc(C2Nc3ccccc3-c3nnc(SC)nc3O2)cc1C (centres undefined)
CCOc1cc(/C=C2\C(=O)N(CCc3ccc(OC)c(OC)c3)C(C)=C2C(=O)OC)ccc1O
CCOC(=O)c1c(C)[nH]c(C)c1S(=O)(=O)NCC(=O)N(C)c1ccc(C)c(C)c1
CC(C)(C)c1ccc(NC(=O)CSc2nnc3scc(-c4ccccc4)n23)cc1
Cc1ccc(C)c(NC(=O)CSc2nc(=O)n(Cc3ccccn3)c3c2CCC3)c1
O=C(Nc1nc(-c2ccc(Cl)cc2)cs1)NC1CCCCC1

Fetched by compound from the list above, seven records:
Potency, inactive:
COc1ccc2c(c1)oc(=O)c1ccccc12
CCn1c(=O)cc(SCC(=O)N2CCN(c3cc(C)ccc3C)CC2)c2ccccc21
CCCCN(CC)C(=O)Cn1nc(C)c2c(C)n(-c3ccccc3)nc2c1=O
CC(C)c1cnc2c(c1SCC(=O)NCc1ccccc1)c(=O)n(C)c(=O)n2C
COc1ccc(CC(=O)N2CCCc3ccccc32)cc1OC
O=C(NCc1ccccc1Cl)c1cnc2sc(N3CCCCC3)nn2c1=O
COc1ccc(C2Nc3ccccc3-c3nnc(SC)nc3O2)cc1C (centres undefined)

Next part:

Potency, active:
CC(C)OC(=O)C1Cc2ccccc2CN1S(=O)(=O)c1cccs1 (centres undefined) 31.6 µM
Cc1ccc2c(c1)c1nnc(SCC(=O)Nc3cccc(Cl)c3C)nc1n2CC(=O)O 22.4 µM
Cc1ccnc(NS(=O)(=O)c2ccc(CC(C)C)cc2)c1 100 µM
COc1ccc(NC(=O)CN(c2ccc([N+](=O)[O-])cc2)S(=O)(=O)c2ccccc2)cc1 0.112 µM
CCCSc1nc2sc3c(c2c(=O)[nH]1)CCN(Cc1ccccc1)C3 39.8 µM
CSCC[C@H](NS(=O)(=O)c1ccc(C(C)=O)cc1)c1nnc2ccccn12 79.4 µM
O=c1cc(-c2ccc(O)cc2)oc2cc(O)c(C3OC(CO)C(O)C(O)C3O)c(O)c12 (centres undefined) 8.91 µM
C#Cc1ccc(C(=O)NCc2ccc(N3CCCC3=O)cc2)cc1 17.8 µM
O=C(O)c1ccc(CNc2ccccc2C(=O)O)cc1 11.2 µM
Cc1cccc(NC(=O)NNC(=O)c2cc3ccccc3cc2O)c1C 35.5 µM

Potency, inconclusive:
Nc1c2c(nc3ccc(Br)cc13)N(C1CCCCC1)CC2 79.4 µM [inhibitor, single point]
O=C(N/N=C/c1coc2ccc(Cl)cc2c1=O)c1ccc(O)cc1 39.8 µM [inhibitor, single point]
CCn1c(SCC(=O)N2CCc3ccccc3C2)nc2sc(C)c(C)c2c1=O 56.2 µM [inhibitor, single point]
Cc1ccc2c(c1)c1nnc(SCC(=O)Nc3ccc(N(C)C)cc3)nc1n2CC(=O)O 31.6 µM [inhibitor, full curve]
CN(Cc1ccccc1)C(=O)Cn1ncc2c3ccccc3n(Cc3cccc(Cl)c3)c2c1=O 15.8 µM [inhibitor, full curve, poor fit]
CCOC(=O)C1=C(CC)OC(N)=C(C#N)C1c1ccsc1 (centres undefined) 17.8 µM [inhibitor, partial curve, poor fit]
Cc1ccc(NC(=O)CSc2nc(N)cc(=O)[nH]2)cc1Cl 79.4 µM [inhibitor, partial curve]
CC(=O)c1cccc(NC(=O)CCS(=O)(=O)c2ccc(Br)s2)c1 56.2 µM [inhibitor, partial curve, poor fit]
Cc1ccc(-c2cnc(NCc3ccc(C(F)(F)F)cc3)n2C)cc1 3.98 µM [inhibitor, full curve, poor fit]
Cc1ccc(-n2ncc(C(=O)Nc3ccc4c(c3)OCO4)c2C2CCN(C(=O)OC(C)(C)C)CC2)cc1 31.6 µM [inhibitor, partial curve]
C=CCc1ccc(OCCOc2cccc3ccc(C)nc23)c(OC)c1 20 µM [inhibitor, full curve, poor fit]
CN1CCN(c2nc3c(c(=O)[nH]c(=O)n3C)n2Cc2ccc([N+](=O)[O-])cc2)CC1 0.562 µM [inhibitor, full curve, poor fit]
Cc1ccc(CNS(=O)(=O)c2ccc(-n3cnnn3)c(C)c2)cc1 89.1 µM [inhibitor, single point]
CSc1nnnn1-c1ccc(C)c(Cl)c1 39.8 µM [inhibitor, single point]
Cc1oc(-c2ccccc2)cc1C(=O)NC(Cc1c[nH]c2ccccc12)C(=O)O (centres undefined) 79.4 µM [inhibitor, partial curve]
COc1ccc2cc(/C=C3\SC(=S)NC3=O)c(N3CCOCC3)nc2c1 79.4 µM [inhibitor, single point]
CCc1ccc(OCC2Cn3c(nc4c3c(=O)[nH]c(=O)n4C)O2)cc1 (centres undefined) 70.8 µM [inhibitor, single point]
Cc1cc(C)n2nc(C(=O)Nc3ccc(S(=O)(=O)N(C)C)cc3)nc2n1 79.4 µM [inhibitor, single point]
COc1cc(/C=C(\C#N)c2nc3ccccc3[nH]2)ccc1OC(=O)c1ccco1 22.4 µM [inhibitor, full curve]
Cc1ccc(CNC(=O)Cn2cc(S(=O)(=O)Cc3ccccc3F)c3ccccc32)cc1 70.8 µM [inhibitor, single point]
O=[N+]([O-])c1ccccc1CN1CCN(c2ncccn2)CC1 1.26 µM [inhibitor, full curve, poor fit]
COc1cccc(N2CC34C=CC(O3)C(C(=O)O)C4C2=O)c1 (centres undefined) 8.91 µM [inhibitor, full curve]
O=C(CCC1CCCN(C(=O)C2=CCCCC2)C1)N1CCN(c2ccccn2)CC1 (centres undefined) 4.47 µM [inhibitor, single point]
O=C(Nc1cccc([N+](=O)[O-])c1)Nc1ccc2c(c1)CCC2 89.1 µM [inhibitor, single point]
CCCCc1nc2sc3c(SCCN(C)C)ncnc3c2c2c1CCC2 89.1 µM [inhibitor, single point]
O=C(NCCO)/C(=C\c1ccc([N+](=O)[O-])o1)NC(=O)c1ccccc1 0.708 µM [inhibitor, full curve]
O=C(Nc1ccc(Cl)c(Cl)c1)Nc1cc(C(=O)NC2CC2)ccc1Cl 39.8 µM [inhibitor, partial curve]
N#CC1=C(N)OC2=C(CC/C2=C\c2ccccc2)C1c1ccccc1 (centres undefined) 89.1 µM [inhibitor, partial curve, poor fit]
CCOc1ccc(NC(=O)NNC(=O)COc2ccc3ccccc3c2)cc1 89.1 µM [inhibitor, single point]
O=C(CCC1COc2ccccc2O1)NCc1ccccc1 (centres undefined) 0.141 µM [inhibitor, full curve, poor fit]
CC(CCc1ccco1)NC(=O)c1cccc2c1C(=O)N(C1CCCCC1)C2 (centres undefined) 79.4 µM [inhibitor, single point]
CC(C)C(=O)Nc1ccc(C(=O)NNC(=O)C(c2ccccc2)c2ccccc2)cc1 44.7 µM [inhibitor, partial curve]
O=C(CSc1ncnc2c1oc1ccccc12)Nc1cccc(Cl)c1 89.1 µM [inhibitor, single point]
CC[C@@H]1CC=C[C@H]2[C@H]1C(=O)N(Cc1ccccc1)[C@H]2c1ccc2ccccc2c1 89.1 µM [inhibitor, single point]
O=C(COc1ccc(/C=N/NC(=O)c2ccccc2Br)cc1)Nc1ccccc1 89.1 µM [inhibitor, single point]
S=C(Nc1ccc2snnc2c1)N1CCN(c2ccccn2)CC1 6.31 µM [inhibitor, full curve]
CCC(C)NC(=O)Cn1c(=O)n(Cc2ccc(C(=O)NCc3ccccc3OC)cc2)c(=O)c2ccccc21 (centres undefined) 89.1 µM [inhibitor, single point]
Cc1ccc(OCC(=O)NNC(=O)c2cc3ccccc3o2)cc1 50.1 µM [inhibitor, partial curve]
FC(F)(F)c1cnc(NNC(=S)Nc2ccc(Cl)cc2)c(Cl)c1 25.1 µM [inhibitor, single point]
COc1ccc(CN2C(=O)/C(=C/c3ccc(-c4ccc(Cl)c(C(=O)O)c4)o3)SC2=S)cc1 5.62 µM [inhibitor, full curve]

Activity change, negative = inhibition, inconclusive:
Cc1cccc(/C=C2/Sc3ccc(C(=O)NCCN4CCCC4)cc3NC2=O)c1 -39.8% [inhibitor]
CSc1cccc(NC(=O)C2C3C=CC4(O3)C2C(=O)N(CCN2CCOCC2)C4C(=O)NC2CCCCC2)c1 (centres undefined) -37.1% [inhibitor]
N#CC1=C(S)N(c2ccccc2)C(c2ccc(-c3ccc(Cl)c(Cl)c3)o2)NC1=O (centres undefined) -66.1% [inhibitor]
